This note sets out measurements from PMC3896468.

These are yes or no findings as the source states them, for the method shown. Sequences can lack the tags named with a protein.

This assay concerns the target GST-tagged HMG domain of TCF/Pangolin (Drosophila). Description: pull-down; GST pulldown: 2 µg His-C-clamp with 2 µg GST or GST-HMG, 1 h at 4°C in 20 mM Tris-HCl pH 7.62, 150 mM NaCl, 1% Triton X-100; then Glutathione Sepharose beads for 2 h; anti-His Western blot. Also done after pretreatment with micrococcal nuclease (5 mM CaCl2) or OPA, with no effect on binding; both purified. Background: Immunoblotting shows a protein as a band on a membrane.

In the case of DSGGNNMKACEARFGLDQQSQWCKPCRRKKKCIRYMEALNGNGPAE (domain or fragment, UniProt P91943 363-408) [Mutant 5 His-tagged C-clamp fragment of TCF/Pangolin (K371A, R373E)], the binding entry is given as “no binding (tested: 2 µg of each protein)”.
